This is an account of results in article PMC10266075.

Chains of the proteins cited; added tags and fusions are not shown.
UniProt Q16665: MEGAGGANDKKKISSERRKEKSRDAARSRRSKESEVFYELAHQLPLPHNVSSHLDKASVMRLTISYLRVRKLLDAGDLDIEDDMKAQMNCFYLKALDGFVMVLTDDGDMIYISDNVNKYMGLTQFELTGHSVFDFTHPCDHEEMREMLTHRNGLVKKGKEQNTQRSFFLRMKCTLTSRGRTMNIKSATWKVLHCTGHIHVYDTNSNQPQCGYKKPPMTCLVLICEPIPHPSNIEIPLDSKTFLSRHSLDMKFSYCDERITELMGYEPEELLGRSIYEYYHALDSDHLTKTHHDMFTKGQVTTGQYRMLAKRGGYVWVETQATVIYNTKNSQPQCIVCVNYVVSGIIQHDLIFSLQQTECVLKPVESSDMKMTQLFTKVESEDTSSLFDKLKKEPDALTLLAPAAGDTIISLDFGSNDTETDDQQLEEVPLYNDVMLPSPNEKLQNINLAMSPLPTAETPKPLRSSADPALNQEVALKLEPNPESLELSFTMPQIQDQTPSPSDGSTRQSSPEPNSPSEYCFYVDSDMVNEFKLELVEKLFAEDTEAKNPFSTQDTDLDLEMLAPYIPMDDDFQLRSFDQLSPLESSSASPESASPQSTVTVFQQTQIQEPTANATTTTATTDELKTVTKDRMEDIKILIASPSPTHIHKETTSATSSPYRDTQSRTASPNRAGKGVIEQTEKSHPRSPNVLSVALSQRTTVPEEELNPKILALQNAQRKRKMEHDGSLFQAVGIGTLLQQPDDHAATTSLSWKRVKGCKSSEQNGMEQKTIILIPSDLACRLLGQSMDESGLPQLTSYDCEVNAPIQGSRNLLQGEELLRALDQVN
UniProt P08047: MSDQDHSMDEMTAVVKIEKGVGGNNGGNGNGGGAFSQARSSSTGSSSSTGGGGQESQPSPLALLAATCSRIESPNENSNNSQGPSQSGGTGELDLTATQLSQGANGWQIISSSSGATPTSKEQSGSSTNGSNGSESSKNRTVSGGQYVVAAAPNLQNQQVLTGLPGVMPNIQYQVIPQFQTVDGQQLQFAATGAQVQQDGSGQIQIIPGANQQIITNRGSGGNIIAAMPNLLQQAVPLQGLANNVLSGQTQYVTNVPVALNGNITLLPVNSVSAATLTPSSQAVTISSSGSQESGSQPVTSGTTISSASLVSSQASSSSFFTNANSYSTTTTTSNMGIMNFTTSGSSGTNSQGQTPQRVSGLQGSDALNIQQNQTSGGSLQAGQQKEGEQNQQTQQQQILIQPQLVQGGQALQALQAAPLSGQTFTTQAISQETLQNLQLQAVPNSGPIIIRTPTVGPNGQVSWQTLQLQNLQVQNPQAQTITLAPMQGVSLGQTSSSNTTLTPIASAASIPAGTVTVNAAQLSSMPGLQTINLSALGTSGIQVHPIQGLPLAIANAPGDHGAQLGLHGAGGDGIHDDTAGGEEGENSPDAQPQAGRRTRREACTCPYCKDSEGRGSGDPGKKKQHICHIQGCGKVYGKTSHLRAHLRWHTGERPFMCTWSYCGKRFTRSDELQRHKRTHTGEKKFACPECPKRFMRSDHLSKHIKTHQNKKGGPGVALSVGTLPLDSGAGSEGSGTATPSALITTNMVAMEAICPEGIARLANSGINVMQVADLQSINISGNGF
UniProt Q9UKV0: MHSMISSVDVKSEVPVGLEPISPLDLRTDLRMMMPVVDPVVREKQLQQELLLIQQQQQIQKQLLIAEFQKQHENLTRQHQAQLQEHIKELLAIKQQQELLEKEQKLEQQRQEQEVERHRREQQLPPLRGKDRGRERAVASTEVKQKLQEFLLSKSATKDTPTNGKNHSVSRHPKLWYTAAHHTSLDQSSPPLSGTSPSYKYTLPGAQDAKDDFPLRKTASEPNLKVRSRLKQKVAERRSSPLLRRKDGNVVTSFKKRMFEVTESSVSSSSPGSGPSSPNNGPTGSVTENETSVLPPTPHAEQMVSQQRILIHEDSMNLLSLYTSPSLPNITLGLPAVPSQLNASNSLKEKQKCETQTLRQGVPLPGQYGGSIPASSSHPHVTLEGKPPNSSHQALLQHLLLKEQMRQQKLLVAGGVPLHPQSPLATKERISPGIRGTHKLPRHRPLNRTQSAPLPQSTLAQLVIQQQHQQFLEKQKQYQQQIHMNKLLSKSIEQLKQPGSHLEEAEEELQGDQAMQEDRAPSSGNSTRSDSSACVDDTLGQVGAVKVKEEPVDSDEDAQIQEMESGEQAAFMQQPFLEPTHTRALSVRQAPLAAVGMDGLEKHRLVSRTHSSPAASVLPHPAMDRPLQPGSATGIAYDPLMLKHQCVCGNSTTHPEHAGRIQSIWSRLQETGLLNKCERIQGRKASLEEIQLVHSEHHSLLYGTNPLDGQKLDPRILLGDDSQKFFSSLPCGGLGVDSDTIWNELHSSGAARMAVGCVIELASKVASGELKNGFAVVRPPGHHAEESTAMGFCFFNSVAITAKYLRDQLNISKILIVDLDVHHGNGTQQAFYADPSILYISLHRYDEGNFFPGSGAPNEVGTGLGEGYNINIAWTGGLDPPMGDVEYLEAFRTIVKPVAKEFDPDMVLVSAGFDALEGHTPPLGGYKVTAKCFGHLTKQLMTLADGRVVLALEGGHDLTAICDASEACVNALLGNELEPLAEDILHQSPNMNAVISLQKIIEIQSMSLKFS

Assay [1] concerns the target hypoxia-inducible factor 1 (HIF-1) (human (endogenous in SH-SY5Y)) (UniProt Q16665). The experiment in a line: co-IP; 1500 ug SH-SY5Y lysate immunoprecipitated overnight at 4 C with 3 ug anti-Sp1 or anti-HIF-1 (normal IgG as negative control), blotted with anti-HDAC9; cells under control conditions or at 72 h after OGD/Rx.
The target in assay [2] is specificity protein 1 (Sp1) (human (endogenous in SH-SY5Y)) (UniProt P08047). Described as above.

Results are given in words; binding and its absence hold for the method and conditions named. Binding seen in cells or lysates may run through a third protein. Some results given as binding are weak or reduced against the parent protein; the word gives no strength.

Regarding “histone deacetylase 9 (HDAC9) (from UniProt Q9UKV0 1-1011)”, the binding result in assay [1] and in assay [2] was “binds” throughout.
